Reference: article PMC8674339
These are yes or no findings as the source states them, for the method shown. In cells and extracts the contact can be indirect. Some entries that bind do so weakly or less than the wild type.

Amino acid sequences for entries named in this document (tags omitted).
UniProt Q76MZ3: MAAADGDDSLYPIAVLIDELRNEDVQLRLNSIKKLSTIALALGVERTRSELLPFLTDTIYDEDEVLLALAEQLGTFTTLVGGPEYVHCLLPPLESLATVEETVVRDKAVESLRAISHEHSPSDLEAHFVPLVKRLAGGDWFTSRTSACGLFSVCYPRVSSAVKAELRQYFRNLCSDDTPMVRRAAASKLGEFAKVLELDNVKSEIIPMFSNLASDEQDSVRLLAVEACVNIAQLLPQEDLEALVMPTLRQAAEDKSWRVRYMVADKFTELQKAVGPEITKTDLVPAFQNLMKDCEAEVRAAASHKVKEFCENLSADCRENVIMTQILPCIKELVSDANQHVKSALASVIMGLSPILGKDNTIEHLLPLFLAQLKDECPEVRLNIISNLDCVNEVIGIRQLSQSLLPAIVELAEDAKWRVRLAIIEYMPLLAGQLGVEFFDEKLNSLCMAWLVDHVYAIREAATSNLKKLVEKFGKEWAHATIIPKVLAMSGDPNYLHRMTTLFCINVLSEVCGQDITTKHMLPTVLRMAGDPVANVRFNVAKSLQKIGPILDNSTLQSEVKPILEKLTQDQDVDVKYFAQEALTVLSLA
UniProt P70288: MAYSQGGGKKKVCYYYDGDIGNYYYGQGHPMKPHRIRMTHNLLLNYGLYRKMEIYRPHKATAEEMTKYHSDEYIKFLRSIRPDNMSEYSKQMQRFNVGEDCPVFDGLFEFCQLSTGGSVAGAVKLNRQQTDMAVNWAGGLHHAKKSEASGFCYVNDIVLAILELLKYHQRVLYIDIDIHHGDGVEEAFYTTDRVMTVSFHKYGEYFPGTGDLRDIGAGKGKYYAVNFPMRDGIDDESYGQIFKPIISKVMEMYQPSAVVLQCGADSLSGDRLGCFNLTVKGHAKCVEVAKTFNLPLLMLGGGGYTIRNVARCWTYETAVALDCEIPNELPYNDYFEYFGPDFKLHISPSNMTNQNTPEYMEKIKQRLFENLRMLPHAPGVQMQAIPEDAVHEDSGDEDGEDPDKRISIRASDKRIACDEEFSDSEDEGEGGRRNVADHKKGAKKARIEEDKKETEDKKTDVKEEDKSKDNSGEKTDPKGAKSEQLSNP

Target: Ppp2r1a (PP2A scaffold protein, structural subunit A) (mouse (endogenous in intestinal organoids and CT26)) (UniProt Q76MZ3)
Assay: co-IP; Ppp2r1a pulldown of CT26 cell lysates, cells treated without and with LB100; western blotting for pRb and pHDAC2

Molecule	binding
phospho-HDAC2 (pHDAC2) (from UniProt P70288 1-488)	binds
phospho-Rb (pRb) (protein, UniProt P13405 1-921, phosphorylated (pRb); sites not stated) MPPKAPRRAAAAEPPPPPPPPPREDDPAQDSGPEELPLARLEFEEIEEPEFIALCQKLKVPDHVRERAWLTWEKVSSVDGILEGYIQKKKELWGICIFIAAVDLDEMPFTFTELQKSIETSVYKFFDLLKEIDTSTKVDNAMSRLLKKYNVLCALYSKLERTCELIYLTQPSSALSTEINSMLVLKISWITFLLAKGEVLQMEDDLVISFQLMLCVVDYFIKFSPPALLREPYKTAAIPINGSPRTPRRGQNRSARIAKQLENDTRIIEVLCKEHECNIDEVKNVYFKNFIPFINSLGIVSSNGLPEVESLSKRYEEVYLKNKDLDARLFLDHDKTLQTDPIDSFETERTPRKNNPDEEANVVTPHTPVRTVMNTIQQLMVILNSASDQPSENLISYFNNCTVNPKENILKRVKDVGHIFKEKFANAVGQGCVDIGVQRYKLGVRLYYRVMESMLKSEEERLSIQNFSKLLNDNIFHMSLLACALEVVMATYSRSTLQHLDSGTDLSFPWILNVLNLKAFDFYKVIESFIKVEANLTREMIKHLERCEHRIMESLAWLSDSPLFDLIKQSKDGEGPDNLEPACPLSLPLQGNHTAADMYLSPLRSPKKRTSTTRVNSAANTETQAASAFHTQKPLKSTSLALFYKKVYRLAYLRLNTLCARLLSDHPELEHIIWTLFQHTLQNEYELMRDRHLDQIMMCSMYGICKVKNIDLKFKIIVTAYKDLPHAAQETFKRVLIREEEFDSIIVFYNSVFMQRLKTNILQYASTRPPTLSPIPHIPRSPYKFSSSPLRIPGGNIYISPLKSPYKISEGLPTPTKMTPRSRILVSIGESFGTSEKFQKINQMVCNSDRVLKRSAEGGNPPKPLKKLRFDIEGADEADGSKHLPAESKFQQKLAEMTSTRTRMQKQRMNESKDVSNKEEK	binds
